Experimental data reported in PubChem BioAssay AID328 (DTP/NCI, 2004).
The list is a part of this screen's results and no random one: it gathers tests that were run many times, whatever their T/C, doses with no T/C, and many T/C values between a quarter and a half above the control. Further doses and runs are listed elsewhere. T/C: endpoint of the treated group in % of that of the vehicle group. Some entries give survivors of the animals treated and no T/C: the source holds a T/C of zero for them, seemingly a mark for toxic or unscored doses. Some doses without a T/C left all or most animals alive at the check, yet need not have been tolerated: the source hardly ever lists a survival T/C far under the control, and the zero likely stands for such cases as well. Counts of survivors are from the toxicity check (mostly the fifth day) where no day follows; animals may have died later. Schedule codes are those of the source, taken here to give the interval after Q, in days (D) or hours (H), and the number of doses after X. Some molecules as drawn cover several salts, stereoisomers or complexes of the source; a dose is that of the sample tested. Signs of the kind (2×) count equal records among those shown. Some doses were run more than once; the values are given in rising order. Where survival is the endpoint, the PubChem record calls one and a half times the control and up active, and a quarter to a half above the control has no call in these data; cut-offs in other NCI protocols can differ. Some T/C values are followed by the survivors on the day toxicity was checked, most often the fifth; where none is given, no animal had died by that day. Residues, ends and D or L forms follow the SMILES beside them.

Tested on: BDF1 mice, P388 leukemia ip, median survival T/C
Assay: NCI In Vivo Anticancer Drug Screen. Data for tumor model P388 Leukemia (intraperitoneal) in B6D2F1 (BDF1) mice
Settings: T/C endpoint: median survival time, higher T/C = longer survival
Method in brief: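 T/C = treated-group survival ÷ vehicle-control survival; tumour transplanted into mice before dosing.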

[1] = dose: 100.0 mg/kg/injection, schedule: Q01DX009 (ip), vehicle: saline
[2] = dose: 200.0 mg/kg/injection, schedule: Q01DX009 (ip), vehicle: saline
[3] = dose: 6.5 mg/kg/injection, schedule: Q01DX005 (iv), vehicle: other
[4] = dose: 100.0 mg/kg/injection, schedule: Q01DX009 (ip), vehicle: saline with Tween-80
[5] = dose: 100.0 mg/kg/injection, schedule: Q04DX003 (ip), vehicle: saline with Tween-80
[6] = dose: 200.0 mg/kg/injection, schedule: Q04DX003 (ip), vehicle: saline with Tween-80

CC(=O)NC(C)C(=O)NC(C)C(=O)NC(C)C(=O)NC(C)C(=O)O (stereo not drawn) (Ac-AAAA-OH; configuration not given here)
survivor count (dose: 200.0 mg/kg/injection, schedule: Q01DX005 (ip), vehicle: saline with Tween-80): 6 of 6

S=P(Oc1ccccc1)(N1CC1)N1CC1
survivor count (dose: 200.0 mg/kg/injection, schedule: Q01DX007 (ip), vehicle: DMSO): 6 of 6 | survivor count (dose: 400.0 mg/kg/injection, schedule: Q01DX007 (ip), vehicle: DMSO): 6 of 6

O=C1C(NCCO)=C(N2CC2)C(=O)C(NCCO)=C1N1CC1
survivor count (dose: 0.75 mg/kg/injection, schedule: Q01DX009 (ip), vehicle: saline): 6 of 6 | survivor count (dose: 1.5 mg/kg/injection, schedule: Q01DX009 (ip), vehicle: saline): 6 of 6

COC(=O)C(C)CN1CCCCC1 (stereo not drawn)
survivor count (dose: 50.0 mg/kg/injection, schedule: Q01DX009 (ip), vehicle: saline): 4 of 6 | survivor count [1]: 5 of 6 | survivor count [2]: 5 of 6

C[P+](C)(c1ccccc1)c1ccccc1
survivor count (dose: 25.0 mg/kg/injection, schedule: Q04DX003 (ip), vehicle: saline with Tween-80): 5 of 6

CN(C)C(=S)N=Nc1c(O)[nH]c2ccccc12
survivor count (dose: 6.25 mg/kg/injection, schedule: Q01DX009 (ip), vehicle: saline with Tween-80): 6 of 6 | survivor count (dose: 25.0 mg/kg/injection, schedule: Q01DX009 (ip), vehicle: saline with Tween-80): 6 of 6 | survivor count (dose: 50.0 mg/kg/injection, schedule: Q01DX009 (ip), vehicle: saline sonified): 6 of 6 | survivor count (dose: 100.0 mg/kg/injection, schedule: Q01DX009 (ip), vehicle: saline sonified): 6 of 6 | survivor count (dose: 200.0 mg/kg/injection, schedule: Q01DX009 (ip), vehicle: saline sonified): 6 of 6 | survivor count (dose: 200.0 mg/kg/injection, schedule: Q04DX003 (ip), vehicle: saline sonified): 6 of 6

COc1cc(NS(C)(=O)=O)ccc1Nc1c2ccccc2nc2ccccc12
T/C (dose: 0.37 mg/kg/injection, schedule: Q01DX009 (ip), vehicle: saline): 140 % of control | T/C (dose: 3.12 mg/kg/injection, schedule: Q01DX009 (ip), vehicle: Klucel (hydroxypropylcellulose) (HPC)): 149 % of control [5 of 6 alive] | T/C (dose: 3.3 mg/kg/injection, schedule: Q01DX005 (iv), vehicle: other): 128 and 134 % of control | survivor count (dose: 4.0 mg/kg/injection, schedule: Q01DX009 (ip), vehicle: other): 10 of 10 (4×) | survivor count (dose: 6.5 mg/kg/injection, schedule: Q01DX005 (ip), vehicle: other): 10 of 10 | T/C [3]: 143 % of control [9 of 10 alive] | survivor count [3]: 10 of 10 | T/C (dose: 6.6 mg/kg/injection, schedule: Q04DX003 (iv), vehicle: other): 134 % of control | survivor count (dose: 8.0 mg/kg/injection, schedule: Q01DX009 (ip), vehicle: other): 8 of 10 (2×) and 10 of 10 (2×) | T/C (dose: 10.0 mg/kg/injection, schedule: Q04DX003 (iv), vehicle: other): 134 % of control | T/C (dose: 10.0 mg/kg/injection, schedule: Q08DX002 (iv), vehicle: other): 132 % of control | survivor count (dose: 13.0 mg/kg/injection, schedule: Q01DX005 (ip), vehicle: other): 6 of 10 | survivor count (dose: 13.0 mg/kg/injection, schedule: Q01DX005 (iv), vehicle: other): 9 of 10 and 10 of 10 | T/C (dose: 13.0 mg/kg/injection, schedule: Q04DX003 (iv), vehicle: other): 146 % of control | survivor count (dose: 15.0 mg/kg/injection, schedule: Q04DX003 (ip), vehicle: clinical formulation): 6 of 8 | T/C (dose: 15.0 mg/kg/injection, schedule: Q08DX002 (iv), vehicle: other): 141 % of control | T/C (dose: 16.0 mg/kg/injection, schedule: Q04DX003 (ip), vehicle: lactic acid): 137 and 145 % of control | survivor count (dose: 16.7 mg/kg/injection, schedule: Q04DX003 (ip), vehicle: other): 8 of 8 | survivor count (dose: 22.6 mg/kg/injection, schedule: Q04DX003 (ip), vehicle: other): 1 of 10 | survivor count (dose: 22.6 mg/kg/injection, schedule: Q08DX002 (ip), vehicle: other): 5 of 10 | survivor count (dose: 24.0 mg/kg/injection, schedule: Q04DX003 (ip), vehicle: lactic acid): 4 of 10, 7 of 10, 9 of 10 | survivor count (dose: 25.0 mg/kg/injection, schedule: Q04DX003 (ip), vehicle: clinical formulation): 3 of 8 | survivor count (dose: 26.0 mg/kg/injection, schedule: Q01DX005 (iv), vehicle: other): 1 of 10 | survivor count (dose: 34.0 mg/kg/injection, schedule: Q04DX003 (ip), vehicle: other): 0 of 10 | survivor count (dose: 34.0 mg/kg/injection, schedule: Q08DX002 (ip), vehicle: other): 4 of 10 | survivor count (dose: 51.0 mg/kg/injection, schedule: Q04DX003 (ip), vehicle: other): 3 of 10 | survivor count (dose: 51.0 mg/kg/injection, schedule: Q04DX003 (iv), vehicle: other): 6 of 10 | survivor count (dose: 51.0 mg/kg/injection, schedule: Q08DX002 (ip), vehicle: other): 0 of 10 | survivor count (dose: 51.0 mg/kg/injection, schedule: Q08DX002 (iv), vehicle: other): 0 of 10

O=C(/C=C/c1cccc2ccccc12)c1ccc(Cl)cc1
survivor count (dose: 400.0 mg/kg/injection, schedule: Q01DX009 (ip), vehicle: Klucel (hydroxypropylcellulose) (HPC)): 0 of 6

C[C@]12C=CC(=O)C=C1CC[C@@H]1[C@@H]2[C@@H](O)C[C@@]2(C)[C@H]1CC[C@]2(O)C(=O)COC(=O)CCC(=O)O
T/C [4]: 131 % of control | T/C [5]: 131 % of control | T/C [6]: 127 % of control

Clc1ccc2c(c1)C(Br)c1cc(Cl)cc(Cl)c1-2 (stereo not drawn)
survivor count [5]: 6 of 6 | survivor count (dose: 400.0 mg/kg/injection, schedule: Q01DX009 (ip), vehicle: saline with Tween-80): 5 of 6

CC(=O)C(=Cc1c[nH]c2ccccc12)C(C)=O
survivor count (dose: 50.0 mg/kg/injection, schedule: Q01DX009 (ip), vehicle: Klucel (hydroxypropylcellulose) (HPC)): 6 of 6 | T/C (dose: 50.0 mg/kg/injection, schedule: Q04DX003 (ip), vehicle: water): 135 % of control | T/C (dose: 400.0 mg/kg/injection, schedule: Q04DX003 (ip), vehicle: water): 125 % of control

COCCCN=C(N)c1ccc(NC(=O)c2ccc(C(=O)Nc3ccc(C(N)=NCCCOC)cc3)cc2)cc1
T/C (dose: 0.33 mg/kg/injection, schedule: Q01DX009 (ip), vehicle: saline with Tween-80): 138 % of control | T/C (dose: 0.75 mg/kg/injection, schedule: Q01DX009 (ip), vehicle: saline with Tween-80): 139 % of control | T/C (dose: 2.66 mg/kg/injection, schedule: Q04DX003 (ip), vehicle: saline with Tween-80): 131 % of control | T/C (dose: 4.4 mg/kg/injection, schedule: Q04DX003 (ip), vehicle: saline with Tween-80): 136 % of control | T/C (dose: 6.0 mg/kg/injection, schedule: Q04DX003 (ip), vehicle: saline with Tween-80): 136 % of control | T/C (dose: 6.6 mg/kg/injection, schedule: Q04DX003 (ip), vehicle: saline with Tween-80): 145 % of control | T/C (dose: 10.0 mg/kg/injection, schedule: Q04DX003 (ip), vehicle: saline with Tween-80): 145 % of control

COC(=O)CCc1ccc(NP(=O)(N2CC2)N2CC2)cc1
T/C [4]: 131 % of control | T/C (dose: 132.0 mg/kg/injection, schedule: Q04DX003 (ip), vehicle: saline with Tween-80): 136 % of control [5 of 6 alive] | survivor count (dose: 150.0 mg/kg/injection, schedule: Q01DX009 (ip), vehicle: saline with Tween-80): 6 of 6 | T/C [6]: 136 % of control

CCOC(=O)C(=Cc1ccc(C=C(C(=O)OCC)C(=O)OCC)cc1)C(=O)OCC
survivor count (dose: 400.0 mg/kg/injection, schedule: Q04DX003 (ip), vehicle: Klucel (hydroxypropylcellulose) (HPC)): 5 of 6

CC=C=CCN(C)Cc1ccccc1
survivor count [1]: 0 of 6 | survivor count [2]: 0 of 6

OCC1OC(Nc2ccccc2/C=N\O)C(O)C1O (stereo not drawn)
T/C (dose: 50.0 mg/kg/injection, schedule: Q01DX009 (ip), vehicle: saline with Tween-80): 130 % of control
